Experimental data: PubChem BioAssay AID1381 (University of Pittsburgh Molecular Library Screening Center, 2008)
Some of the results follow. Some salts and complexes are drawn in separate pieces, as the source files them; their charges need not balance.

Test: inhibitors of GR-EGFP nuclear translocation, primary screen, dynein cargo transport inhibitor project, imaging, high-content, 3617.4 mouse cells (AID 1381)
Conditions: stimulated with dexamethasone, 1 µM
[1] = measured here: cell count per field, at 20 µM
[2] = measured here: cytoplasmic GR-EGFP intensity, at 20 µM, stronger effect = higher value
[3] = measured here: nuclear GR-EGFP intensity, at 20 µM, stronger effect = lower value
[4] = measured here: cell count per field, at 50 µM
[5] = measured here: cytoplasmic GR-EGFP intensity, at 50 µM, stronger effect = higher value
[6] = measured here: nuclear GR-EGFP intensity, at 50 µM, stronger effect = lower value

| SMILES | z-score [1] | z-score [2] | z-score [3] | z-score [4] | z-score [5] | z-score [6] |
| --- | --- | --- | --- | --- | --- | --- |
| COc1ccccc1OP(=O)(Nc1ccc(C)cn1)Oc1ccccc1OC | -1.32 | -0.0201 | 2.12 | – | – | – |
| Cc1ccc(OP(=O)(Nc2nccs2)Oc2ccc(C)cc2)cc1 | -0.32 | -0.0302 | 0.731 | – | – | – |
| Cc1nc2ccc3ccccc3c2o1.O=[N+]([O-])c1cc([N+](=O)[O-])c(O)c([N+](=O)[O-])c1 | 0.0796 | -0.102 | -0.138 | – | – | – |
| Nc1cccc2ccc([As](=O)(O)O)cc12 | 0.0841 | -0.215 | -0.00661 | – | – | – |
| CP(=O)(OCCOc1ccccc1)OCCOc1ccccc1 | 0.307 | -0.126 | 0.342 | – | – | – |
| CP(=O)(Nc1ccc(Cl)cc1Cl)Oc1ccccc1 (centres undefined) | -0.039 | -0.239 | -0.00561 | – | – | – |
| CCN(N=Nc1nonc1N)c1nonc1N | 0.35 | -0.247 | 0.0558 | – | – | – |
| Cc1cc(C)cc(OP(C)(=O)Nc2cccc(C(F)(F)F)c2)c1 (centres undefined) | 0.455 | -0.358 | 0.0954 | – | – | – |
| O=P(Nc1nc2ccc(Cl)cc2s1)(c1ccccc1)c1ccccc1 | 0.64 | -0.263 | -0.429 | – | – | – |
| O=C(O)c1ccccc1[As](=O)(O)O | -0.275 | -0.302 | 0.367 | – | – | – |
| CC(=O)Nc1ccc([As](=O)(O)O)cc1 | 0.308 | -0.133 | -0.135 | – | – | – |
| COc1ccc(OP(C)(=O)Nc2ccccc2Br)cc1 (centres undefined) | -0.163 | -0.0734 | 0.825 | – | – | – |
| CCOP(=O)(Nc1ccccc1)OCC | -1.3 | -0.25 | 1.11 | 0.789 | -0.195 | -0.613 |
| Cc1cc(SC(NC(=O)c2ccc(F)cc2)C(Cl)(Cl)Cl)ncn1 (centres undefined) | -0.172 | -0.226 | 0.0236 | – | – | – |
| Cc1ccc(NP(=O)(Oc2ccccc2F)Oc2ccccc2F)nc1 | 0.551 | -0.241 | 0.129 | – | – | – |
| COc1ccccc1OP(C)(=O)Nc1ccc(C)c(C)c1 (centres undefined) | -0.11 | -0.346 | -0.0492 | – | – | – |
| CCC(=O)N1C2C3N(C(=O)CC)C1C1N(C(=O)CC)C(C(N1C(=O)CC)N3C(=O)CC)N2C(=O)CC | 2.69 | -0.244 | -1 | – | – | – |
| CCN(CC)CCCOC(=O)C(O)(c1ccccc1)C1CCCCC1 (centres undefined) | – | – | – | 1.17 | -0.234 | -0.128 |
| COC(=O)c1cc2c(s1)N=C(c1ccccc1)N(C)P2(=O)N1CCOCC1 (centres undefined) | 0.31 | -0.315 | -0.115 | – | – | – |
| CC(=O)NC(SC(=S)N(CC(C)C)CC(C)C)C(Cl)(Cl)Cl (centres undefined) | -1.49 | -0.143 | 2.12 | – | – | – |
| Cc1ccc(OP(=O)(Nc2ccccn2)Oc2ccc(C)cc2)cc1 | -0.548 | 0.199 | 0.584 | – | – | – |
| Cc1ccccc1OP(=O)(Nc1ccccn1)Oc1ccccc1C | -0.472 | -0.274 | 0.654 | – | – | – |
| CN(C)C(=O)Oc1noc2ccccc12 | 0.0572 | -0.145 | 0.105 | – | – | – |

| SMILES | z-score [1] | z-score [2] | z-score [3] | z-score [4] | z-score [5] | z-score [6] |
| --- | --- | --- | --- | --- | --- | --- |
| CCCCCOc1ccc(NP(C)(=O)Oc2ccc(Cl)cc2Cl)cc1 (centres undefined) | -0.275 | 0.433 | 0.867 | – | – | – |
| O=c1c2cc([N+](=O)[O-])ccc2[nH]c2c([N+](=O)[O-])cc([N+](=O)[O-])cc12 | 1.2 | -0.0295 | -1.32 | – | – | – |
| CP(=O)(Nc1ccccc1)Oc1ccc(F)cc1 (centres undefined) | – | – | – | 0.281 | -0.229 | -1.31 |
| c1ccc(-c2nn[nH]n2)c(-c2nn[nH]n2)c1 | -1.15 | 0.0108 | 0.769 | – | – | – |
| Cc1ccc(NP(=O)(Oc2cccc(C)c2)Oc2cccc(C)c2)nc1 | -0.912 | -0.234 | 1.34 | – | – | – |
| CCOC(=O)NC(Sc1ccccc1)C(Cl)(Cl)Cl (centres undefined) | 0.427 | -0.186 | 0.257 | – | – | – |
| O=C(NC1CCS(=O)(=O)C1)NP(=S)(Oc1ccccc1)Oc1ccccc1 (centres undefined) | 0.644 | 1.01 | 0.171 | – | – | – |
| CCNC(=S)/N=C(\N)N[N+](=O)[O-] | 0.841 | -0.256 | -0.156 | – | – | – |
| COc1ccc(OP(C)(=O)Nc2ccc(SC(F)(F)F)cc2)cc1 (centres undefined) | 0.297 | -0.175 | -0.0643 | – | – | – |
| CCOC(=O)c1ccc(NP(C)(=O)Oc2ccc(F)cc2)cc1 (centres undefined) | 0.1 | 0.00325 | 0.714 | – | – | – |
| O=C(OCCN1CCN(CCOCc2ccccc2)CC1)C(O)(c1ccccc1)c1ccccc1 | -0.795 | 0.34 | 0.354 | – | – | – |
| C[C@@H]1C=CCP(=O)(Oc2ccccc2)O1 (some centres undefined) | -0.016 | -0.826 | 0.398 | – | – | – |
| C[C@H]1OP(=O)(Oc2ccccc2)C[C@@H]2O[C@@H]21 (some centres undefined) | -0.141 | -0.727 | -0.0554 | – | – | – |
| O=C(OC1CN2CCC1CC2)c1ccc([N+](=O)[O-])cc1 (centres undefined) | 1.03 | -0.196 | -0.382 | – | – | – |
| COc1ccc2c(c1O)-c1c(O)c(OC)cc3c1[C@H](C2)[N+](C)(C)CC3.O=[N+]([O-])c1cc([N+](=O)[O-])c([O-])c([N+](=O)[O-])c1[O-] | 0.765 | -0.744 | -0.293 | – | – | – |
| CC(=O)Nc1ccc([As](=O)(O)O)c(O)c1 | -0.652 | -0.228 | 0.472 | – | – | – |
| CC(=O)Nc1ccc(Oc2c([N+](=O)[O-])cc([N+](=O)[O-])cc2[N+](=O)[O-])cc1 | 0.733 | -0.369 | 0.0501 | – | – | – |
| O=P1(Nc2nc3ccc(Cl)cc3s2)COc2ccccc2O1 (centres undefined) | -0.26 | -0.404 | 0.184 | – | – | – |
| CCOc1ccc(C2=NCC(CBr)S2)cc1 (centres undefined) | -2.17 | 0.0559 | 1.59 | – | – | – |
| CC(C)(C)C(=O)NC(Sc1ccccc1)C(Cl)(Cl)Cl (centres undefined) | 0.444 | -0.247 | -0.36 | – | – | – |
| CC(C)c1ccc(OP(C)(=O)Nc2ccc(SC(F)(F)F)cc2)cc1 (centres undefined) | -0.273 | -0.227 | -0.145 | – | – | – |
| CP(=O)(Nc1ccccc1F)Oc1ccccc1 (centres undefined) | 0.444 | -0.242 | 0.129 | – | – | – |
| CP(=O)(Nc1ccc2c(c1)OCCO2)Oc1ccccc1 (centres undefined) | – | – | – | 0.324 | -0.259 | -0.725 |

| SMILES | z-score [1] | z-score [2] | z-score [3] | z-score [4] | z-score [5] | z-score [6] |
| --- | --- | --- | --- | --- | --- | --- |
| Cc1ccccc1NP(C)(=O)Nc1ccccc1C | 1.19 | -0.203 | 0.151 | – | – | – |
| O=P(Nc1nccs1)(c1ccccc1)c1ccccc1 | – | – | – | -0.484 | -0.0257 | 0.689 |
| CC(C)C(=O)NC(Sc1ccccc1)C(Cl)(Cl)Cl (centres undefined) | 1.76 | -0.126 | 0.0739 | – | – | – |
| CP(=O)(Nc1ccc(SC(F)(F)F)cc1)Oc1ccc(F)cc1 (centres undefined) | -1.1 | -0.216 | 0.701 | – | – | – |
| c1nnnn1CCn1cnnn1 | -0.0992 | -0.199 | 0.266 | – | – | – |
| CCOP(C)(=S)SCC(=O)NC(C)(CC)C(=O)O (centres undefined) | 1.17 | -0.214 | -0.419 | – | – | – |
| O=[As](O)(c1ccccc1)c1ccc(O)cc1 | 0.407 | -0.255 | -0.119 | – | – | – |
| Cc1cc(-c2cccc3ccccc23)c(C)cn1.O=[N+]([O-])c1cc([N+](=O)[O-])c(O)c([N+](=O)[O-])c1 | 0.183 | -0.231 | -0.531 | – | – | – |
| O=[N+]([O-])c1cc([N+](=O)[O-])c(NCC2CCS(=O)(=O)C2)c([N+](=O)[O-])c1 (centres undefined) | -0.128 | -0.014 | 0.157 | – | – | – |
| O=[N+]([O-])c1ccc(OP2(=O)COCCO2)cc1 (centres undefined) | 0.658 | -0.292 | -0.37 | – | – | – |
| CC(=O)NC(SC(=S)N(C)C)C(Cl)(Cl)Cl (centres undefined) | -0.506 | -0.113 | 1.35 | – | – | – |
| O=[N+]([O-])c1ncn(CCn2cnc([N+](=O)[O-])n2)n1 | -0.607 | -0.246 | 0.489 | – | – | – |
| O=C(OC1CN2CCC1CC2)c1cccc(Cl)c1 (centres undefined) | -0.0215 | 0.0121 | 0.23 | – | – | – |
| Nc1ccc([As](=O)(O)c2ccc([N+](=O)[O-])cc2)cc1 | -0.221 | -0.211 | -0.156 | – | – | – |
| C(Cc1nn[nH]n1)Cc1nn[nH]n1 | 1.17 | -0.202 | -0.786 | – | – | – |
| O=P(Nc1ccccn1)(c1ccc(Br)cc1)c1ccc(Br)cc1 | 0.664 | -0.208 | 0.333 | – | – | – |
| COc1ccc(OP(C)(=O)Nc2cccc(Br)c2)cc1 (centres undefined) | 0.589 | -0.222 | 0.589 | – | – | – |
| COc1ccc(NP(C)(=O)Oc2ccccc2OC)cc1 (centres undefined) | 0.332 | -0.265 | -0.349 | – | – | – |
| O=P(Nc1nc2ccccc2s1)(c1ccccc1)c1ccccc1 | 0.398 | -0.135 | 0.0443 | – | – | – |
| CN(C)CCOC(=O)C(O)(c1ccccc1)C1CCCCC1 (centres undefined) | – | – | – | 0.247 | -0.221 | -0.662 |
| C[C@H]1OP(=O)(Oc2ccccc2)[C@H](O)[C@H](O)[C@H]1N=[N+]=[N-] (some centres undefined) | 0.483 | -0.716 | -0.0621 | – | – | – |
